From patent US12310368B2, “Method for the prophylactic treatment of a food product” (Solvay SA, priority 2018, dated 2025)
Read-outs that look alike come from different tables or passages of the source.

Conditions: 200 ppm dosage

With `O=C([O-])O.[Na+]` [sodium bicarbonate] the “measured quantity of sodium bicarbonate in wheat grains” value (“measured quantity” below) (after passage in separator cleaner, Sample 3 cell bottom) was 134 ppm, the “measured quantity” value (after passage in separator cleaner, Sample 4 middle of cell) was 142 ppm and the “measured quantity” value (after passage in separator cleaner, Sample 9 top of cell) was 149 ppm. For the same compound, the “measured quantity” value (exit of cell before separator cleaner, Sample 1 cell bottom) was 202 ppm, the “measured quantity” value (exit of cell before separator cleaner, Sample 2 middle of cell) was 199 ppm and the “measured quantity” value (exit of cell before separator cleaner, Sample 8 cell top) was 202 ppm.
